These are yes or no findings as the source states them, for the method shown. In cells and extracts the contact can be indirect. Some entries that bind do so weakly or less than the wild type. For some of these results: Where a sequence is shown, tags or fusion partners need not be part of it.
Legend:
[1] = biological target: T1, SLC38A9 protein labeled with HA tag (UniProt Q8NBW4); assay: streptavidin-bead pull-down from HEK293T lysate, Western blot with anti-HA
T1 sequence (looked up): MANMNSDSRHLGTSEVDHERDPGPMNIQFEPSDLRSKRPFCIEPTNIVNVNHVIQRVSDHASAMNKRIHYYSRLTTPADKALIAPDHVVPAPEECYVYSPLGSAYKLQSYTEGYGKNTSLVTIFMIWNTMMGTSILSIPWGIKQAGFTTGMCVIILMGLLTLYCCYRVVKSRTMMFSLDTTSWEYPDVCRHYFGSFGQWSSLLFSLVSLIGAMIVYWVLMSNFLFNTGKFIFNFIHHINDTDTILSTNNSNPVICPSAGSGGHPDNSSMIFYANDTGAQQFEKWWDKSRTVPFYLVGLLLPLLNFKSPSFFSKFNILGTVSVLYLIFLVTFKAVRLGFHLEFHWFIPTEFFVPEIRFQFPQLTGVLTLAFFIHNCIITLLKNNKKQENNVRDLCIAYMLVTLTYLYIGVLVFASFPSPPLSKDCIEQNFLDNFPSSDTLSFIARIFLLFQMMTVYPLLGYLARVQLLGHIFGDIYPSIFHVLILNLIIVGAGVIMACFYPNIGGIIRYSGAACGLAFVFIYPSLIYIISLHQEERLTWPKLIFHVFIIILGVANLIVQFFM

Amino acid sequences for entries named in this document (tags omitted). A change or cut given only in a name is not applied to a line headed by its entry.
UniProt P30825: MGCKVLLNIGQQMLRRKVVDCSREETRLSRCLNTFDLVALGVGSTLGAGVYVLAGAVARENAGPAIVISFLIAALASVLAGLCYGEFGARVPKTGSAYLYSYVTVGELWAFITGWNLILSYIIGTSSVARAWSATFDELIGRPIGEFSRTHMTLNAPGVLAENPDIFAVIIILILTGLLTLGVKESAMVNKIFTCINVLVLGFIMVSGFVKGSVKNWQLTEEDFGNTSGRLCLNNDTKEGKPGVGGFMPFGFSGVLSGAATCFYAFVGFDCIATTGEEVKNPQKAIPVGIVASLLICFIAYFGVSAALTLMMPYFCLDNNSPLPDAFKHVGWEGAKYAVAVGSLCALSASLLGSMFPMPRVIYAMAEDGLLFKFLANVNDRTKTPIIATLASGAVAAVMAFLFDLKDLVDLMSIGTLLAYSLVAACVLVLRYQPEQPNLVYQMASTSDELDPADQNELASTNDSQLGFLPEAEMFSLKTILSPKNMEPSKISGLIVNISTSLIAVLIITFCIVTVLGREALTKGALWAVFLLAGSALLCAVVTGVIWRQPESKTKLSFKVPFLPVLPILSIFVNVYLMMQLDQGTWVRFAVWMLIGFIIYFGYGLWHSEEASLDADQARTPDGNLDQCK
UniProt O14894: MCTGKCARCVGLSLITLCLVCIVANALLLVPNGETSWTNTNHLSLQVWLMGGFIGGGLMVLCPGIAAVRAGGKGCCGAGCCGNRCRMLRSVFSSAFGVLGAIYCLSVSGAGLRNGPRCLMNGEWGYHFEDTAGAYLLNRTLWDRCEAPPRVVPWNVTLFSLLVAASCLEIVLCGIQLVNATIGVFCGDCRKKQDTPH

[2] = biological target: SLC7A1 (solute carrier family 7 member 1) protein labeled with HA tag (UniProt P30825); assay: as above
[3] = biological target: T1, SLC38A9 protein labeled with HA tag; assay: co-precipitation, Western blot (FIG. 14C)
[4] = biological target: SLC7A1 (solute carrier family 7 member 1) protein labeled with HA tag (UniProt P30825); assay: co-precipitation, Western blot (FIG. 14B)

Measured: binding

TM4SF5 (transmembrane 4 L6 family member 5) protein (from UniProt O14894 1-197)
binds: all assays above
